PubChem BioAssay (NCATS)
The shares of active, inactive and inconclusive entries below differ from those in the screen. Where the call is inconclusive, the potency comes from a doubtful curve fit. Activity calls are given as the source filed them. Calls follow the shape of the dose curve; as a rule, active = well fitted cell-killing curve with a large enough effect; inconclusive = small, poorly fitted or top-dose-only effect, or effect the other way; inactive = no such curve, though single readings can be large or run the other way.

assay: Quantitative High-Throughput drug screen in 47 multiple myeloma cell lines against the NCATS MIPE library collection: ARP1_JJKsccF8 cell viability assay (AID 1918928; also: nearly all actives have a fitted effect of over 40% in size); settings: ARP1 myeloma cells viability, CellTiter-Glo ATP, 48 h; viability: at 45.8 µM (top of the series)
In short: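 Myeloma cells, 500 per well, were exposed to MIPE 4.0 drugs by pin transfer for 48 h at 37 °C, 5% CO2. Viability was read as ATP luminescence with CellTiter-Glo, normalised to DMSO-only (100%) and medium-only (0%) wells.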
Potency is read from the fitted curve at half-maximal effect.

Structure (SMILES) | Potency | viability
CCC(=C(c1ccc(O)cc1)c1ccc(OCCNC)cc1)c1ccccc1 | inconclusive: 1.2 nM [cytotoxic, full curve, poor fit] | –
NCCCC(N)(C(=O)O)C(F)F (configuration not stated) | inconclusive: 2640 nM [cytotoxic, partial curve, poor fit] | –
NS(=O)(=O)c1cc(Cl)c(Cl)c(S(N)(=O)=O)c1 | active: 8330 nM | –
CN1c2ccccc2C(=O)N2CCc3c([nH]c4ccccc34)C21 (configuration not stated) | inconclusive: 2640 nM [cytotoxic, full curve, poor fit] | –
N#CC(c1ccc(Cl)cc1)c1c(Cl)cc(-n2ncc(=O)[nH]c2=O)cc1Cl (configuration not stated) | inconclusive: 18700 nM [cytotoxic, partial curve, poor fit] | –
Cc1ccc(C(=O)Nc2ccc(CN3CCN(C)CC3)c(C(F)(F)F)c2)cc1C#Cc1cnc2cccnn12 | active: 1660 nM | –
CN1CCN(c2cc(C(=O)Nc3ccc4c(c3)-c3c(c(C(N)=O)nn3-c3ccc(F)cc3)CC4)c(Cl)cn2)CC1 | inconclusive: 37200 nM [cytotoxic, single point] | –
Cc1c(CN2CCN(S(C)(=O)=O)CC2)sc2c(N3CCOCC3)nc(-c3cnc(N)nc3)nc12 | active: 8.3 nM | –
CC(C)c1onc(-c2c(Cl)cccc2Cl)c1COc1ccc(C=Cc2cccc(C(=O)O)c2)c(Cl)c1 | – | inactive: 81.2%
O=C(CN1C(=O)C2(CCCC2)NC[C@H]1c1cc(F)cc(F)c1)Nc1ccc2c(c1)C[C@@]1(C2)C(=O)Nc2ncccc21 | – | inactive: 108%
O=C(O)c1cccnc1 | inconclusive: 118 nM [rising, full curve, poor fit] | –
O=c1[nH]cnc2[nH]ncc12 | – | inactive: 105%
Nc1cccc2c1CN(C1CCC(=O)NC1=O)C2=O (configuration not stated) | – | inactive: 99.9% [at 92.2 µM]
N#CC(=C1Nc2ccccc2S1)c1ccnc(OCc2ccc(CN3CCOCC3)cc2)n1 | active: 23500 nM | –
O=C(O)C(=O)Nc1cccc(C2=NN=N[N]2)c1 | – | inactive: 104%
CC(C)(N)C(=O)N[C@H](COCc1ccccc1)C(=O)N1CCC2(CC1)CN(S(C)(=O)=O)c1ccccc12 | inconclusive: 29600 nM [cytotoxic, partial curve, poor fit] | –

assay: Quantitative High-Throughput drug screen in 47 multiple myeloma cell lines against the NCATS MIPE library collection: ARD_JJKsccE7 cell viability assay (AID 1918929); settings: ARD myeloma cell line viability, CellTiter-Glo, 48 h; viability: at 45.8 µM (top of the series)
In short: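 Viability readout: CellTiter-Glo luminescence following 5 min room-temperature incubation with reagent. Prior exposure: 48 h, 37C, humidified 5% CO2, 500 cells per well.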

Structure (SMILES) | Potency | viability
CCC(=C(c1ccc(O)cc1)c1ccc(OCCNC)cc1)c1ccccc1 | inconclusive: 33200 nM [cytotoxic, single point] | –
O=C(NOC[C@H](O)CO)c1ccc(F)c(F)c1Nc1ccc(I)cc1F | inconclusive: 10.5 nM [cytotoxic, full curve, poor fit] | –
CNC(=O)c1cc(Oc2ccc(NC(=O)Nc3ccc(Cl)c(C(F)(F)F)c3)cc2)ccn1 | active: 2640 nM | –
NCCCC(N)(C(=O)O)C(F)F (configuration not stated) | inconclusive: 332 nM [cytotoxic, full curve, poor fit] | –
C=CC(=O)N1CCc2ccc(-n3c(=O)ccc4cnc5ccc(-c6cnn(C)c6)cc5c43)cc21 | active: 833 nM | –
C[C@@H]1[C@H](C)CC[C@]2(C(=O)O)CC[C@]3(C)C(=CC[C@@H]4[C@@]5(C)C[C@@H](O)[C@H](O)[C@@](C)(CO)[C@H]5CC[C@]43C)[C@@H]12 | – | inactive: 116%
COc1ccc2c(c1)c(CC(=O)OCC(=O)O)c(C)n2C(=O)c1ccc(Cl)cc1 | inconclusive: 2960 nM [cytotoxic, full curve, poor fit] | –
CC(C)c1onc(-c2c(Cl)cccc2Cl)c1COc1ccc(C=Cc2cccc(C(=O)O)c2)c(Cl)c1 | inconclusive: 6620 nM [rising, full curve] | –
Nc1ccc(C(=O)c2cc3c(ccc4ccccc43)[nH]2)cc1 | inconclusive: 2090 nM [cytotoxic, partial curve, poor fit] | –
N#CC(=C(N)Sc1ccc(N)cc1)c1ccccc1C(F)(F)F | inconclusive: 52.6 nM [cytotoxic, full curve, poor fit] | –
C=CCn1c(=O)c2cnc(Nc3ccc(N4CCN(C)CC4)cc3)nc2n1-c1cccc(C(C)(C)O)n1 | active: 264 nM | –
CC(C)OC(=O)[C@H](C)N[P@](=O)(OC[C@H]1O[C@@H](n2ccc(=O)[nH]c2=O)[C@](C)(F)[C@H]1O)Oc1ccccc1 | – | inactive: 94.6%
Cc1csc(-c2nnc(Nc3ccc(Oc4ncccc4-c4ccnc(N)n4)cc3)c3ccccc23)c1 | active: 23500 nM | –
O=c1[nH]cnc2[nH]ncc12 | active: 23500 nM | –
O=C1C(CCC(O)c2ccc(F)cc2)C(c2ccc(O)cc2)N1c1ccc(F)cc1 (configuration not stated) | inconclusive: 5.3 nM [cytotoxic, full curve, poor fit] | –
Nc1cccc2c1CN(C1CCC(=O)NC1=O)C2=O (configuration not stated) | inconclusive: 85.5 nM [cytotoxic, full curve, poor fit] | –
O=C(O)C(=O)Nc1cccc(C2=NN=N[N]2)c1 | – | inactive: 108%

assay: Quantitative High-Throughput drug screen in 47 multiple myeloma cell lines against the NCATS MIPE library collection: Karpas620_DSMZ cell viability assay (AID 1918959); settings: Karpas620 myeloma viability, CellTiter-Glo ATP luminescence, 48 h; viability (% of DMSO): at 45.8 µM (top of the series); also: nearly all actives have a fitted effect of over 30% in size
In short: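 Luminescent ATP measurement with CellTiter-Glo gives viability, scaled between DMSO-only wells (100%) and media-only wells (0%). Cells, 500 per well, faced library compounds for 48 hours at 37C.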

Structure (SMILES) | Potency | viability (% of DMSO)
CN(C)CCN1C(=O)c2cccc3cc(N)cc(c23)C1=O | active: 26400 nM | –
CN1c2ccccc2C(=O)N2CCc3c([nH]c4ccccc34)C21 (configuration not stated) | – | inactive: 125%
COc1cc2ncnc(Nc3ccc(F)c(Cl)c3)c2cc1NC(=O)C=CCN1CCCCC1 | active: 2960 nM | –
COc1ccc2c(c1)c(CC(=O)OCC(=O)O)c(C)n2C(=O)c1ccc(Cl)cc1 | – | inactive: 97.4%
Nc1ccc(C(=O)c2cc3c(ccc4ccccc43)[nH]2)cc1 | inconclusive: 1320 nM [cytotoxic, partial curve, poor fit] | –
N#CC(=C(N)Sc1ccc(N)cc1)c1ccccc1C(F)(F)F | inconclusive: 332 nM [cytotoxic, full curve, poor fit] | –
C=CCn1c(=O)c2cnc(Nc3ccc(N4CCN(C)CC4)cc3)nc2n1-c1cccc(C(C)(C)O)n1 | inconclusive: 1180 nM [cytotoxic, full curve] | –
CCC(=O)O[C@]1(C(=O)SCF)[C@H](C)C[C@H]2[C@@H]3C[C@H](F)C4=CC(=O)C=C[C@]4(C)[C@@]3(F)[C@@H](O)C[C@@]21C | – | inactive: 111%
Cc1csc(-c2nnc(Nc3ccc(Oc4ncccc4-c4ccnc(N)n4)cc3)c3ccccc23)c1 | inconclusive: 20900 nM [cytotoxic, partial curve, poor fit] | –

Single records, from the list above:
`C=CCn1c(=O)c2cnc(Nc3ccc(N4CCN(C)CC4)cc3)nc2n1-c1cccc(C(C)(C)O)n1` is listed as Potency: inconclusive: 1180 nM [cytotoxic, full curve]
`CN1c2ccccc2C(=O)N2CCc3c([nH]c4ccccc34)C21` (configuration not stated) is listed as viability (% of DMSO): inactive: 125%
